Measured data: PubChem BioAssay AID504791 (Drosophila RNAi Screening Center, 2011)

Assay: 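Factors in Argonaute-based small RNA production and activity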 (primary screen)
Cells: Drosophila S2-derived reporter cells
Knock-down reagent: long dsRNA against Drosophila genes, about 150-250 ng dsRNA per well (siRNA assay); about 80-120 ng (miRNA assay)
Duration: about 5 days (siRNA assay); about 4 days (miRNA assay)
Conditions: copper sulfate induction of reporters: 25 µM (siRNA assay); 200 mM stated (miRNA assay), 1-2 days before reading
Measurement: 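Dual luciferase assay: Renilla to firefly signal ratio in each well, scaled to the mean ratio of its plate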
Units: stable assay Renilla, run 1 in luminescence; stable assay firefly, run 1 in luminescence
Hit rule: 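a well was a first-pass pick when its plate-scaled ratio rose above 1.5 (siRNA assay) or 1.6 (miRNA assay), or dropped below 0.6; a gene counted only if two separate dsRNAs agreed on retest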
The screen tested about 23,000 reagents; below is a random part of those that have a named target and a result. Of all reagents, 199 (0.86%) were called active. 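Plate-scaled ratios behind the calls are not deposited; printed light signals are raw; many rows marked increased or decreased are still called inactive.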 Entries without a mark were called inactive. Names joined by + are all predicted targets of the reagent. Not stated in the record: the direction of the score.

Scsalpha2 [SID104195795] → stable assay Renilla, run 1 = 8046; stable assay firefly, run 1 = 3.22e5
Ciao1 [SID104185962] → stable assay Renilla, run 1 = 8396; stable assay firefly, run 1 = 4.61e5
CG13192 [SID104186109] → stable assay Renilla, run 1 = 5142; stable assay firefly, run 1 = 2.46e5
Usp30 [SID104198057] → stable assay Renilla, run 1 = 5720; stable assay firefly, run 1 = 3.12e5
mth [SID104188517] → stable assay Renilla, run 1 = 8226; stable assay firefly, run 1 = 2.97e5
CG14957 [SID104188208] → stable assay Renilla, run 1 = 7550; stable assay firefly, run 1 = 6.01e5
CG18268 + CG3014 [SID104195111] → stable assay Renilla, run 1 = 7096; stable assay firefly, run 1 = 4.14e5
Mp [SID104189985] → stable assay Renilla, run 1 = 3555; stable assay firefly, run 1 = 3.72e5
Mp [SID104190821] → stable assay Renilla, run 1 = 6410; stable assay firefly, run 1 = 4.02e5
Mp [SID104190822] → stable assay Renilla, run 1 = 6387; stable assay firefly, run 1 = 4.34e5
Grip163 [SID104190330] → stable assay Renilla, run 1 = 7178; stable assay firefly, run 1 = 3.79e5
mrva [SID104190801] → stable assay Renilla, run 1 = 4263; stable assay firefly, run 1 = 4.06e5
mrva [SID104201489] → stable assay Renilla, run 1 = 9454; stable assay firefly, run 1 = 7.25e5

The list goes on; the last 3 above are carried over.
Grip163 [SID104190330] → stable assay Renilla, run 1 = 7178; stable assay firefly, run 1 = 3.79e5
mrva [SID104190801] → stable assay Renilla, run 1 = 4263; stable assay firefly, run 1 = 4.06e5
mrva [SID104201489] → stable assay Renilla, run 1 = 9454; stable assay firefly, run 1 = 7.25e5
Dnah3 [SID104187922] → stable assay Renilla, run 1 = 5024; stable assay firefly, run 1 = 4.98e5
Dnah3 [SID104188305] → stable assay Renilla, run 1 = 7094; stable assay firefly, run 1 = 5.19e5
CG6052 [SID104190366] → stable assay Renilla, run 1 = 7998; stable assay firefly, run 1 = 4.29e5
CG33095 [SID104194233] → stable assay Renilla, run 1 = 7531; stable assay firefly, run 1 = 4.43e5
Acp62F [SID104187928] → stable assay Renilla, run 1 = 7155; stable assay firefly, run 1 = 4.15e5
CG13810 [SID104188136] → stable assay Renilla, run 1 = 5762; stable assay firefly, run 1 = 3.28e5
CG13810 [SID104202197] → stable assay Renilla, run 1 = 4787; stable assay firefly, run 1 = 3.90e5
CG13116 [SID104182006] → stable assay Renilla, run 1 = 5816; stable assay firefly, run 1 = 4.78e5
CG13116 [SID104201560] → stable assay Renilla, run 1 = 8307; stable assay firefly, run 1 = 5.03e5
Dscam4 [SID104188703] → stable assay Renilla, run 1 = 5690; stable assay firefly, run 1 = 5.94e5
Dscam4 [SID104188705] → stable assay Renilla, run 1 = 5279; stable assay firefly, run 1 = 5.00e5
Dscam4 [SID104189823] → stable assay Renilla, run 1 = 6190; stable assay firefly, run 1 = 5.10e5
Dscam4 [SID104190121] → stable assay Renilla, run 1 = 6123; stable assay firefly, run 1 = 4.23e5
Dscam4 [SID104190557] → stable assay Renilla, run 1 = 5588; stable assay firefly, run 1 = 4.22e5
CG6972 [SID104195951] → stable assay Renilla, run 1 = 8015; stable assay firefly, run 1 = 4.06e5
